Out of some 330,000 compounds screened, about 100 (0.03%) were called active. The shares of active, inactive and inconclusive entries below differ from those in the screen. The call rests on the fitted dose curve; in most records, active means well fitted inhibition curve with a large enough effect; inconclusive means small, poorly fitted or top-dose-only effect; inactive means flat fitted curve, though single readings scatter. Potencies beside an inconclusive call are fits to weak or partial responses and may not hold up.
Each compound was assayed on Chaperonin Mm-Cpn (Methanococcus maripaludis) (assay: Inhibitors of TCP-1 ring complex (TRiC) of Methanococcus maripaludis (MmCpn): qHTS). Conditions: purified Mm-Cpn ATPase, ADP Transcreener TR-FRET; activity, negative = inhibition: at the top concentration.
In short: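 ATP (10 uM final) was added to archaeal chaperonin (25 nM final) after 10 min exposure to test compound at 37°C; after 30 min further incubation, ADP was detected by competitive TR-FRET.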
Further: nearly all actives have a fitted effect of over 80% in size.
On the % scale 0 is the no-effect control and ±100 the full control effect; potency means the concentration at half of the fitted maximal effect.
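Wherever Potency is given: enzyme at 25 nM with ATP substrate at 10 µM during the reaction.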

Potency, inconclusive:
CCOC(=O)/C(C#N)=C\C1=C(N2CCCC2)CC(C)(CC)OC1 (stereo unspecified) 28.2 µM [inhibitor, partial curve, poor fit]
O=C(Nc1cccc(C(=O)Nc2ccc(Cl)cn2)c1)c1ccccc1 22.4 µM [inhibitor, single point]
COc1ccc(C2CC(c3ccc4ccccc4c3OC(C)=O)=NN2C(=O)/C=C/c2ccccc2)cc1 (stereo unspecified) 1000 µM [inhibitor, partial curve, poor fit]
CC1(C)CC(=O)N(c2ccc(Cl)cc2Cl)C(=O)C1 100 µM [inhibitor, single point]
COc1cc(OC)cc(-c2c(-c3cccs3)c3cc(-c4ccc(CN5CCOCC5)cc4)ccc3n2C)c1 89.1 µM [inhibitor, partial curve, poor fit]
[O-][n+]1c2ccccc2[n+]([O-])c2cc(O)ccc21 200 µM [inhibitor, partial curve, poor fit]
Cc1cc(OCC(O)CN2CCN(c3ccccn3)CC2)cc(C)c1Cl (stereo unspecified) 11.2 µM [inhibitor, single point]
Clc1ccccc1Sc1ccc(-c2ccccn2)s1 79.4 µM [inhibitor, partial curve, poor fit]
Cc1cc(NC(=O)c2cncc(Br)c2)ccc1NC(=O)c1cc2ccccc2o1 100 µM [inhibitor, single point]
C=CCNc1nc(Nc2ccc([N+](=O)[O-])cc2)nc(N2CCCC2)n1 28.2 µM [inhibitor, single point]
O=C(Nc1nc(-c2cccs2)cs1)c1ccc(S(=O)(=O)N2CCCC2)cc1 100 µM [inhibitor, single point]
O=C(OCCCN=C1NS(=O)(=O)c2ccccc21)c1ccccc1F 14.1 µM [inhibitor, single point]
CSC(=S)N/N=C/c1ccccc1 447 µM [inhibitor, partial curve, poor fit]
CCOc1ccc(/C=C2\SC(=S)N(CCC(=O)N(CCO)c3ccccc3)C2=O)cc1 14.1 µM [inhibitor, single point]
COc1cccc(C2C(C(=O)c3cc4ccccc4o3)=C(O)C(=O)N2c2cc(C)on2)c1 (stereo unspecified) 100 µM [inhibitor, partial curve, poor fit]
COc1cccc(C(=O)Nc2ccccc2NC(=O)c2cccc(OC)c2)c1 11.2 µM [inhibitor, single point]
O=C(NCCOCCOCCNC(=O)c1ccccc1)c1ccccc1 70.8 µM [inhibitor, single point]
O=C(COC(=O)c1ccc([N+](=O)[O-])s1)c1ccc[nH]1 447 µM [inhibitor, partial curve, poor fit]
O=C1NC(=S)CN1c1ccccc1 89.1 µM [inhibitor, single point]
O=C(NCc1ccccc1)N1CCC(CO)(Cc2cccc(F)c2)CC1 15.8 µM [inhibitor, single point]
CCOC(=O)c1ccccc1NC(=O)C1CSC2(C)CCC(=O)N12 (stereo unspecified) 10 µM [inhibitor, single point]
CCOC(=O)CNC(=O)c1sc2ncnc(N3CCc4ccccc4C3)c2c1C 794 µM [inhibitor, partial curve, poor fit]
Cc1cccc(S(=O)(=O)Nc2ccc(-n3c(C)nc4ccccc4c3=O)cc2)c1 100 µM [inhibitor, single point]
COc1ccc(OC)c(NC(=O)NC2CCCc3ccccc32)c1 (stereo unspecified) 14.1 µM [inhibitor, single point]
CCC(NS(=O)(=O)c1ccc(C)cc1)C(=O)N1CCN(c2ccccn2)CC1 (stereo unspecified) 89.1 µM [inhibitor, single point]
Cc1ccc(S(=O)(=O)Nc2nc3ccccc3s2)cc1[N+](=O)[O-] 56.2 µM [inhibitor, single point]
O=C(O)c1ccc(OCCn2ccnc2)cc1 79.4 µM [inhibitor, single point]
CS(=O)(=O)c1ccccc1C(=O)Nc1cccc2ncccc12 12.6 µM [inhibitor, single point]
Cc1ccc(C2(C)NC(=O)N(CC(=O)N3CCN(S(=O)(=O)c4ccc(Cl)s4)CC3)C2=O)cc1 (stereo unspecified) 44.7 µM [inhibitor, partial curve, poor fit]
O=C(Nc1ccccc1C(=O)N1CCOCC1)C1CCC(=O)N1C1CCCC1 (stereo unspecified) 251 µM [inhibitor, partial curve, poor fit]
Cc1ccc(S(=O)(=O)NCC(=O)NCCc2c[nH]c3ccccc23)cc1C 5.62 µM [inhibitor, single point]
O=C(Nc1nnc(SCC(=O)N2CCCc3ccccc32)s1)c1ccc2ccccc2c1 79.4 µM [inhibitor, single point]

Two records picked at random from those above, as already listed:
Potency, inconclusive:
COc1cc(OC)cc(-c2c(-c3cccs3)c3cc(-c4ccc(CN5CCOCC5)cc4)ccc3n2C)c1 89.1 µM [inhibitor, partial curve, poor fit]
O=C(NCCOCCOCCNC(=O)c1ccccc1)c1ccccc1 70.8 µM [inhibitor, single point]

Following part.

activity, negative = inhibition, inactive:
CCOC(=O)c1c(C)oc2c1c(C(c1cccnc1)N1CCOCC1)c(O)c1ccccc12 (stereo unspecified) -4.1%
O=C1C(N2CCOCC2)=C(n2nnc3ccccc32)C(=O)c2ccccc21 -0.0253%
O=[N+]([O-])c1ccc(Nc2cccc(F)c2)nc1 1.5%
CCOC(=O)c1cccc(N2C(=O)c3ccccc3S2(=O)=O)c1 -1.03%
CC(C)(C)OC(=O)N1O[C@H]2CC1[C@@H]1[C@@H]2N=NN1CCc1ccncc1 -2.16%
Cc1ccc(C)c(N2CCN(S(=O)(=O)c3ccc4c(c3)CCC(=O)N4)CC2)c1 -0.639%
O=C(Nc1ccccc1O)c1ccccc1O 0.536%
O=C(CSc1ccc(Cl)cc1)N1CCC(c2nc3ccccc3s2)CC1 0.878%
CCCCN(CCCC)CCC(O)c1cc2c(Cl)cc(Cl)cc2c2cc(C(F)(F)F)ccc12 (stereo unspecified) -0.59%

— PubChem BioAssay AID504842 (National Center for Advancing Translational Sciences (NCATS), 2011)
